PubChem BioAssay AID1259287 | Sanger Institute, 2017

- Assay: 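Confirm knock-downs acting together with BYL719, cetuximab or trametinib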 (follow-up of hits)
- System: human HCT15 colorectal cancer cells
- Knock-down reagent: single siRNA against human genes
- Challenge: BYL719 1 µM, cetuximab 5 µg/ml or trametinib 10 nM, or DMSO vehicle
- Detection: 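Cell survival relative to non-targeting pool 2 wells, averaged across replicates, with a synergy score for each drug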
- Reading the numbers: synergy score with BYL719 and synergy score with cetuximab and synergy score with trametinib: higher = stronger combined killing than expected; viability with DMSO vehicle only: higher = more cells survive the knock-down
- Call rule: 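a hit if BYL719, cetuximab or trametinib yields synergy greater than 0.10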
- Calls: active = synergy with at least one drug; inactive = no synergy with any drug
In all, the deposit lists 160 reagents; this is an unselected part. 19 of them (12%) count as active. 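Viability seems capped at 1; calls apply to HCT15 cells only, not to validation across other lines.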 Reagents against one gene are numbered here. Not given: the amount of reagent, the time to read-out.

| gene | reagent | synergy score with BYL719 | synergy score with cetuximab | synergy score with trametinib | viability with DMSO vehicle only (fraction of control) | activity call |
| --- | --- | --- | --- | --- | --- | --- |
| ACVR1 | 1 | -0.12 | -0.0601 | -0.141 | 0.984 | inactive |
| ACVR1 | 2 | 0.0222 | 0.0614 | -0.136 | 0.975 | inactive |
| ACVR1 | 3 | -0.0469 | -0.0444 | -0.0617 | 1 | inactive |
| ACVR1 | 4 | -0.166 | 0.0019 | -0.0723 | 0.985 | inactive |
| MPP3 | 1 | -0.0105 | 0.0138 | 0.042 | 0.928 | inactive |
| MPP3 | 2 | -0.0555 | -0.113 | -0.0385 | 0.788 | inactive |
| MPP3 | 3 | 0.087 | -0.0337 | -0.0434 | 0.903 | inactive |
| MPP3 | 4 | -0.0609 | -0.0345 | 0.0848 | 0.754 | inactive |
| HSPB8 | 1 | -0.0651 | -0.156 | -0.116 | 0.786 | inactive |
| HSPB8 | 2 | -0.167 | -0.0389 | 0.0243 | 0.95 | inactive |
| HSPB8 | 3 | -0.163 | -0.134 | -0.0477 | 0.86 | inactive |
| HSPB8 | 4 | 0.0842 | -0.0634 | 0.0781 | 0.869 | inactive |

Quoted from above (4 entries):
| gene | reagent | synergy score with BYL719 | synergy score with cetuximab | synergy score with trametinib | viability with DMSO vehicle only (fraction of control) | activity call |
| --- | --- | --- | --- | --- | --- | --- |
| MPP3 | 3 | 0.087 | -0.0337 | -0.0434 | 0.903 | inactive |
| MPP3 | 4 | -0.0609 | -0.0345 | 0.0848 | 0.754 | inactive |
| HSPB8 | 1 | -0.0651 | -0.156 | -0.116 | 0.786 | inactive |
| HSPB8 | 2 | -0.167 | -0.0389 | 0.0243 | 0.95 | inactive |

Further records:
| gene | reagent | synergy score with BYL719 | synergy score with cetuximab | synergy score with trametinib | viability with DMSO vehicle only (fraction of control) | activity call |
| --- | --- | --- | --- | --- | --- | --- |
| PIM1 | 1 | 0.031 | 0.101 | 0.0967 | 0.917 | active |
| PIM1 | 2 | -0.113 | -0.0817 | -0.00236 | 0.84 | inactive |
| PIM1 | 3 | -0.261 | -0.152 | -0.31 | 0.731 | inactive |
| PIM1 | 4 | -0.105 | -0.186 | -0.139 | 0.851 | inactive |
| RPS6KA4 | 1 | -0.023 | 0.0117 | 0.0385 | 0.965 | inactive |
| RPS6KA4 | 2 | -0.0692 | -0.12 | 0.0108 | 0.731 | inactive |
| RPS6KA4 | 3 | -0.211 | 0.000181 | -0.0842 | 0.619 | inactive |
| RPS6KA4 | 4 | -0.123 | -0.191 | -0.0163 | 0.648 | inactive |
| NR2F2 | 1 | -0.0297 | 0.0367 | -0.0445 | 0.84 | inactive |
| NR2F2 | 2 | -0.0625 | -0.141 | -0.11 | 0.862 | inactive |
| NR2F2 | 3 | -0.0903 | -0.0414 | -0.0413 | 1 | inactive |
| NR2F2 | 4 | -0.0996 | -0.211 | 0.0582 | 0.822 | inactive |
